Results on 28 compounds are retold here after the supplement of paper PMC8866396.

SMILES strings stand for the structures. ± gives the standard deviation of the averaged measurements. Some of the results follow. Repeats in this data set agree poorly, so a single value says little.

For one assay, the system named is IL-6-GFP PC-9GR. The assay can be described thus: IL-6-GFP fluorescence relative to DMSO control (fraction of control); higher = more IL-6-GFP expression. The settings on record: compound concentration: 10 uM; treatment time: 48 h. Here is the method: (§1)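 IL-6-GFP-overexpressing PC-9 and PC-9GR EGFR-mutant lung cancer cells (3000 cells/well, 96-well) were treated for 48 h with each compound of the Selleck L2000 library at 10 uM. IL-6-GFP fluorescence was read on a high-content screening system, and viability by CCK-8 absorbance on a parallel plate set. Each value was normalised as compound well / DMSO control well; two independent replicates.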

A further assay has as its system IL-6-GFP PC-9. The assay is described as above. The settings on record: compound concentration: 10 uM; treatment time: 48 h. Here is the method:
as §1

As for `CC1(C(=O)O)CCC2(C)CCC3(C)C(=CC(=O)C4C5(C)CCC(OC6OC(C(=O)O)C(O)C(O)C6OC6OC(C(=O)O)C(O)C(O)C6O)C(C)(C)C5CCC43C)C2C1` (stereo not drawn) [Glycyrrhizin (Glycyrrhizic Acid)], the figures for the IL-6-GFP fluorescence in the assay on IL-6-GFP PC-9GR and with IL-6-GFP PC-9 were 0.887 ± 0.082 and 0.864 ± 0.27, respectively.
The corresponding values for `O=C(O)CCCN1CCC(OC(c2ccc(Cl)cc2)c2ccccn2)CC1.O=S(=O)(O)c1ccccc1` (stereo not drawn) [Bepotastine Besilate] are 0.873 ± 0.017 and 0.853 ± 0.27.
As for `COc1cc2c3cc1Oc1c(OC)c(OC)cc4c1C(Cc1ccc(O)c(c1)Oc1ccc(cc1)CC3N(C)CC2)N(C)CC4` (stereo not drawn) [Berbamine], the IL-6-GFP fluorescence with IL-6-GFP PC-9 was 0.895 ± 0.16.
On to `CCCCNC(=O)NS(=O)(=O)c1ccc(C)cc1` [Tolbutamide], for which the IL-6-GFP fluorescence came to 0.534 ± 0.42 in the assay with IL-6-GFP PC-9GR and 0.789 ± 0.22 in the assay on IL-6-GFP PC-9.
`CC(C)Cc1ccc(C(C)C(=O)O)cc1` (stereo not drawn) [Ibuprofen] registered an IL-6-GFP fluorescence with IL-6-GFP PC-9 of 0.85 ± 0.26.
Take `O=C(NCC1CN(c2ccc(N3CCOCC3=O)cc2)C(=O)O1)c1ccc(Cl)s1` (stereo not drawn) [Rivaroxaban]: the IL-6-GFP fluorescence was found to be 1.03 ± 0.14 in the assay on IL-6-GFP PC-9GR and 0.731 ± 0.29 in the assay with IL-6-GFP PC-9.
For `CC(OC1OCCN(Cc2n[nH]c(=O)[nH]2)C1c1ccc(F)cc1)c1cc(C(F)(F)F)cc(C(F)(F)F)c1` (stereo not drawn) [Aprepitant] the same measures were 1.03 ± 0.028 and 1.03 ± 0.17.
For `CC(O)CO.CCOc1ccc(Cc2cc(C3OC(CO)C(O)C(O)C3O)ccc2Cl)cc1.O` (stereo not drawn) [Dapagliflozin propanediol monohydrate] the same measures were 0.901 ± 0.13 and 0.762 ± 0.047.
For `Cc1cncc(CN2CCC(=C3c4ccc(Cl)cc4CCc4cccnc43)CC2)c1.O=C(O)/C=C/C(=O)O` [Rupatadine Fumarate] the same measures were 0.926 ± 0.085 and 1.04 ± 0.33.
`Cc1nc(Nc2ncc(C(=O)Nc3c(C)cccc3Cl)s2)cc(N2CCN(CCO)CC2)n1.Cl` [Dasatinib hydrochloride]: the figures for the IL-6-GFP fluorescence in the assay on IL-6-GFP PC-9GR and in the assay on IL-6-GFP PC-9 were 1.38 ± 0.15 and 1.04 ± 0.11, respectively.
Turning to `CC(C)(O)c1ccccc1CCC(SCC1(CC(=O)O)CC1)c1cccc(/C=C/c2ccc3ccc(Cl)cc3n2)c1` (stereo not drawn) [Montelukast], in the assay on IL-6-GFP PC-9, the IL-6-GFP fluorescence was found to be 0.704 ± 0.029.
On to `O=c1[nH]c(=O)n(C2CCCO2)cc1F` (stereo not drawn), for which the IL-6-GFP fluorescence in the assay with IL-6-GFP PC-9GR is 0.954 ± 0.025; in the assay with IL-6-GFP PC-9, 0.692 ± 0.37.
Turning to `N.N.O=C([O-])C1(C(=O)[O-])CCC1.[Pt+2]` [Carboplatin], the IL-6-GFP fluorescence in the assay with IL-6-GFP PC-9GR turned out to be 0.915 ± 0.28; in the assay on IL-6-GFP PC-9 it was 0.813 ± 0.0089.
For `Cn1nnc2c(C(N)=O)ncn2c1=O` [Temozolomide] the same measures were 0.951 ± 0.073 and 0.891 ± 0.15.
With `CC1CC2C3CCC4=CC(=O)C=CC4(C)C3C(=O)CC2(C)C1(O)C(=O)CO` (stereo not drawn) [Meprednisone], the IL-6-GFP fluorescence in the assay with IL-6-GFP PC-9GR came out at 0.72 ± 0.098; in the assay on IL-6-GFP PC-9 it was 0.88 ± 0.14.
For `COc1ccc2cc1Oc1ccc(cc1)CC1c3cc(c(OC)cc3CCN1C)Oc1c(O)c(OC)cc3c1C(C2)N(C)CC3` (stereo not drawn) [Fangchinoline] the same measures were 0.937 ± 0.16 and 0.733 ± 0.27.
With `C=CC1CN2CCC1CC2C(O)c1ccnc2ccc(OC)cc12.Cl.O.O` (stereo not drawn) [Quinine HCl Dihydrate], the IL-6-GFP fluorescence in the assay on IL-6-GFP PC-9GR was 0.935 ± 0.051; in the assay with IL-6-GFP PC-9, 0.82 ± 0.082.
The corresponding values for `O=C(O)c1ccccc1Nc1cccc(C(F)(F)F)c1` [Flufenamic acid] are 0.534 ± 0.37 and 0.971 ± 0.028.
The corresponding values for `C#Cc1cccc(Nc2ncnc3cc(OCCOC)c(OCCOC)cc23)c1` [Erlotinib] are 1.28 ± 0.22 and 0.958 ± 0.22.
The corresponding values for `CCC(=O)OCC(=O)C1(OC(=O)CC)C(C)CC2C3CCC4=CC(=O)C=CC4(C)C3(Cl)C(O)CC21C` (stereo not drawn) [Beclomethasone dipropionate] are 0.998 ± 0.013 and 0.821 ± 0.25.
On to `NC(=O)c1cccc2cn(-c3ccc(C4CCCNC4)cc3)nc12` (stereo not drawn) [Niraparib (MK-4827)], for which the IL-6-GFP fluorescence in the assay on IL-6-GFP PC-9GR is 1 ± 0.092; with IL-6-GFP PC-9 it was 0.868 ± 0.12.
For `CCC1(O)C(=O)OCc2c1cc1n(c2=O)Cc2cc3cc(O)ccc3nc2-1` (stereo not drawn) [Hydroxy Camptothecine] the same measures were 1.39 ± 0.26 and 1.82 ± 0.31.
The corresponding values for `O=C(/C=C/c1cccc(S(=O)(=O)Nc2ccccc2)c1)NO` [Belinostat (PXD101)] are 1.2 ± 0.14 and 0.983 ± 0.062.
As to `Cc1cn(-c2cc(NC(=O)c3ccc(C)c(Nc4nccc(-c5cccnc5)n4)c3)cc(C(F)(F)F)c2)cn1` [Nilotinib (AMN-107)], the IL-6-GFP fluorescence was 0.95 ± 0.12 with IL-6-GFP PC-9GR and 0.969 ± 0.1 in the assay on IL-6-GFP PC-9.
The corresponding values for `COC1OC2OC3(C)CCC4C(C)CCC(C1C)C24OO3` (stereo not drawn) [Artemether] are 0.756 ± 0.34 and 0.925 ± 0.15.
The corresponding values for `COc1nc2ccc(Br)cc2cc1C(c1ccccc1)C(O)(CCN(C)C)c1cccc2ccccc12.O=C(O)/C=C/C(=O)O` (stereo not drawn) [Bedaquiline fumarate] are 0.847 ± 0.21 and 0.818 ± 0.057.
Turning to `CC(=O)Nc1ccc(CC(=O)O)cc1` [Actarit], the IL-6-GFP fluorescence with IL-6-GFP PC-9GR is 0.836 ± 0.083; in the assay on IL-6-GFP PC-9, 0.922 ± 0.2.
For `CC1=C(/C=C/C(C)=C/C=C/C(C)=C/C(=O)O)C(C)(C)CCC1` [Tretinoin] the same measures were 0.811 ± 0.24 and 0.918 ± 0.16.
